Source: patent US4342774A, “N-Acylcarnosine aluminum salt, its preparation, and a digestive ulcer remedy containing such salt” (Nippon Chemiphar Co., Ltd., priority 1979, dated 1982)
Values joined by “and” are separate entries in the source; they are usually repeats but may differ in a detail not shown here. Equal entries are not always repeated. The name of at least one read-out is uncertain.

System: Shay's ulcer
Experiment: Shay's ulcer (pylorus ligation), inhibitory effect, rats
Type: in vivo, rat (male Donryu strain)
Details: P.O.; for Ulcer index (total area of all lesions): immediately after pylorus ligation; for % Inhibition: vs control of the same run
Procedure: It will be noted that as control compounds for the purposes of comparison, use was made of L-carnosine, L-glutamine, N-acetyl-L-glutamine aluminum and aluminum sucrose sulfate which are known to have an anti-ulcer effect. The anti-ulcer effects and degrees of toxicity of the N-acylcarnosine aluminum compounds according to the invention were determined using rats in which instances various gastric ulcer models of rats were utilized to estimate the anti-ulcer effects.
Shay's ulcer: Groups of ten male Donryu strain rats each weighing 210 to 230 g were deprived of food for 48 hours. The pylorus of each rat was ligated according to the method of Shay et al [Gastroenterology, 5, 43-61 (1945)]. Each of the animals was allowed to stand abstained from food and water for further 14 hours and then sacrificed to remove its stomach. After collection of the gastric juice, the ulcerated area (mm^2) in the forestomach of each rat was measured under a dissecting microscope (10x). The total area (mm^2) of all the lesions of each rat was indicated as an ulcer index. Test medicine samples were given orally immediately after the pylorus ligation.

SMILES | Ulcer index (total area of all lesions) (1,000 mg/kg) | % Inhibition (1,000 mg/kg) | % Inhibition (2,000 mg/kg)
NCCC(=O)N[C@@H](Cc1c[nH]cn1)C(=O)O [L-Carnosine, L-carnosine] | 2.1 ± 0.7 mm^2 and 2.2 ± 0.8 mm^2 | 12.0% | –
NC(=O)CC[C@H](N)C(=O)O [L-Glutamine, L-glutamine] | 2.2 ± 0.8 mm^2 and 2.3 ± 0.7 mm^2 | 8.0% | –
CC(=O)N[C@@H](CCC(N)=O)C(=O)O.[Al] [N-Acetyl-L-glutamine aluminum, N-acetyl-L-glutamine aluminum] | – | – | 72.0% and 69.0%
